Literature values as cited in patent US9987231B2, “Compositions and methods for delivery of omeprazole plus acetylsalicylic acid” (POZEN INC., priority 2011, dated 2018).

Settings: 20° C.

## O=C(O)c1ccccc1O [Salicylic acid, 2-hydroxybenzenecarboxylic acid]
  Solubility in water: 0.2 g/100 ml H2O
